{"source": "PubChem BioAssay AID504467", "about": "(National Center for Advancing Translational Sciences (NCATS), 2011)", "note": "About 7,700 (2.3%) of roughly 330,000 compounds were called active. The shares of active, inactive and inconclusive entries below differ from those in the screen. The call rests on the fitted dose curve; in most records, active means well fitted inhibition curve with a large enough effect; inconclusive means small, poorly fitted or top-dose-only effect, or effect the other way; inactive means flat fitted curve, though single readings scatter. Potencies of inconclusive entries are doubtful fits and often do not repeat. Potency means the concentration at half of the fitted maximal effect.", "data": [{"experiment": "qHTS screen for small molecules that inhibit ELG1-dependent DNA repair in human embryonic kidney (HEK293T) cells expressing luciferase-tagged ELG1; further: nearly all actives have a fitted effect of over 55% in size", "conditions": "HEK293T ELG1-luciferase reporter, luminescence, 16 h, DNA damage induced by 5-fluorouridine; series mostly up to 46.1 µM", "method_in_brief": "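Reporter activity after DNA damage by 5-fluorouridine is monitored. Compound-treated cells incubate 16 hr at 37 °C, then ONE-Glo is added for 30 min before luminescence reading.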", "values": [{"smiles": "Cc1cccc(NC(=O)CO/N=C/c2ccc3c(c2)OCO3)c1", "Potency": "inconclusive: 10.3 µM [activator, partial curve, poor fit]"}, {"smiles": "COc1ccc(NS(=O)(=O)c2cc(NC(=O)c3ccc(S(=O)(=O)N(C)C)cc3)ccc2N2CCOCC2)cc1", "Potency": "inconclusive: 23.1 µM [inhibitor, partial curve, poor fit]"}, {"smiles": "N=C(N)SCc1nc2ccccc2c(=O)n1-c1ccccc1Cl", "Potency": "inconclusive: 18.4 µM [activator, single point]"}, {"smiles": "Cc1ccccc1/C=N\\NC(=O)c1ccc(Cn2cccn2)o1", "Potency": "inactive"}, {"smiles": "Cc1[nH]n(-c2ncc(-c3ccccc3)s2)c(=O)c1C(c1ccc(Cl)cc1)C(C#N)C#N", "note": "(stereo unspecified)", "Potency": "inconclusive: 16.4 µM [activator, single point]"}, {"smiles": "COc1ccc(N(C)S(=O)(=O)c2cccc(C(=O)Nc3ccc4c(c3)OCCO4)c2)cc1", "Potency": "inconclusive: 18.3 µM [inhibitor, single point]"}, {"smiles": "Cc1cc(C)cc(N2CC(C(=O)Nc3cc(C)on3)CC2=O)c1", "note": "(stereo unspecified)", "Potency": "inconclusive: 16.4 µM [activator, single point]"}, {"smiles": "O=C(NC1CCCC1)C(c1ccc(F)cc1)N(Cc1ccc(F)cc1)C(=O)CCl", "note": "(stereo unspecified)", "Potency": "inactive"}, {"smiles": "Cc1cccc(NC(=O)C2CCN(S(=O)(=O)c3c(C)noc3/C=C/c3ccco3)CC2)n1", "Potency": "active: 13 µM"}, {"smiles": "CC(C)c1ccc(C2N3CC4([N+](=O)[O-])CN2CC([N+](=O)[O-])(C3)C4(C)C)cc1", "note": "(stereo unspecified)", "Potency": "inactive"}, {"smiles": "O=C1c2ccccc2S(=O)(=O)N1Cc1nc2ccccc2s1", "Potency": "inconclusive: 0.58 µM [activator, partial curve]"}, {"smiles": "COCCCNc1nc2cc(OC)c(OC)cc2c2nc(-c3ccccc3)nn12", "Potency": "active: 4.11 µM"}, {"smiles": "CN1CCN(c2ccc([N+](=O)[O-])cc2C(=O)N2CCOCC2)CC1", "Potency": "inactive"}, {"smiles": "CC(=O)Oc1ccc(C)cc1-n1nc2ccccc2n1", "Potency": "inconclusive: 16.4 µM [activator, partial curve]"}, {"smiles": "CCc1cccc(NC(=O)C(NC(=O)C2CCCCC2)C(C)C)c1", "note": "(stereo unspecified)", "Potency": "inactive"}, {"smiles": "COCc1cc(C)nc(OCC(=O)N/N=C/c2ccc(OC)c(OC)c2)c1C#N", "Potency": "inconclusive: 25.9 µM [inhibitor, partial curve, poor fit]"}, {"smiles": "Cc1ccc(NC(=O)CSc2nnc(-c3cc(C)on3)o2)cc1", "Potency": "inconclusive: 11.6 µM [activator, partial curve, poor fit]"}, {"smiles": "COc1ccccc1-n1c(SC(C)C(=O)NCC2CCCO2)nc2cc(Cl)ccc2c1=O", "note": "(stereo unspecified)", "Potency": "inactive"}, {"smiles": "CCNc1nc(NC(C)C)nc(N(C)C#N)n1", "Potency": "inconclusive: 29.1 µM [activator, single point]"}, {"smiles": "COc1cccc(N(C(=O)c2snc(C(N)=O)c2N)C(C(=O)NCC2CCCO2)c2ccc3ncccc3c2)c1", "note": "(stereo unspecified)", "Potency": "inactive"}, {"smiles": "COc1cccc(-c2noc(-c3cccnc3)n2)c1", "Potency": "inconclusive: 8.2 µM [activator, partial curve]"}, {"smiles": "O=C(Oc1c(-c2ccco2)oc2ccccc2c1=O)c1cccnc1", "Potency": "inconclusive: 14.6 µM [activator, single point]"}, {"smiles": "CC(=O)Nc1ccc(S(=O)(=O)Oc2ccc(C(=S)N3CCC(O)CC3)cc2)cc1", "Potency": "inconclusive: 13 µM [inhibitor, partial curve, poor fit]"}, {"smiles": "Cc1ccc(-c2nc3cccnc3s2)cc1NS(=O)(=O)c1ccc2c(c1)OCCO2", "Potency": "inconclusive: 29.1 µM [inhibitor, single point]"}, {"smiles": "Nc1cccc(C(=O)Nc2ccccc2Cl)c1", "Potency": "inconclusive: 20.6 µM [activator, partial curve]"}, {"smiles": "COc1ccc(CCNC(=O)C2CCN(S(=O)(=O)c3ccc(NC(C)=O)cc3)CC2)cc1OC", "Potency": "inactive"}, {"smiles": "Cc1ccc2nc(SCC(=O)Nc3ccc(C)c(Cl)c3)nc(=O)n2c1", "Potency": "inconclusive: 23.1 µM [activator, single point]"}, {"smiles": "COc1ccc(CN=C(C)c2c(C(F)(F)F)[nH]n(-c3nc4ccccc4s3)c2=O)cc1", "Potency": "inconclusive: 4.61 µM [activator, full curve]"}, {"smiles": "CC(=O)N1CCN(C(=O)CCN(c2ccccc2)S(=O)(=O)c2ccc(C)cc2)CC1", "Potency": "inactive"}, {"smiles": "CCCC(=O)Nc1ccc(Cl)c(NC(=O)c2cccc(OC)c2)c1", "Potency": "inconclusive: 14.6 µM [inhibitor, partial curve, poor fit]"}, {"smiles": "Cc1ccc(N(CC(=O)NCc2ccco2)C(=O)CCC(=O)Nc2nccs2)c(C)c1", "Potency": "inactive"}, {"smiles": "N#Cc1c(-c2ccccc2)c(-c2ccccc2)n[nH]c1=O", "Potency": "inconclusive: 0.461 µM [inhibitor, partial curve, poor fit]"}, {"smiles": "CCN(CC)S(=O)(=O)c1ccc2c(c1)nc(CCC(=O)Nc1cccc(C(F)(F)F)c1)n2CC", "Potency": "inactive"}, {"smiles": "COc1cccc(-c2nn(-c3ccc(C)cc3)cc2C(=O)N(C)CC(=O)Nc2cccc(F)c2)c1", "Potency": "active: 13 µM"}, {"smiles": "CC(=O)N1CCN(S(=O)(=O)c2cccc(C(=O)Nc3nc4c(s3)CCCC4)c2)CC1", "Potency": "inconclusive: 11.6 µM [inhibitor, partial curve, poor fit]"}, {"smiles": "Cn1c(N=NC(=O)c2ccccc2)c(O)c2ccccc21", "Potency": "inconclusive: 1.84 µM [activator, partial curve]"}, {"smiles": "CCOC(=O)CCC(=O)Nc1ccc(S(=O)(=O)Nc2cc(OC)nc(OC)n2)cc1", "Potency": "inactive"}, {"smiles": "Cc1cc(N2CCN(C)CC2)nc(-c2ccccc2O)n1", "Potency": "inactive"}, {"smiles": "CCN(CC)c1ccc(C(=O)OCC(=O)N2CCCC2)cc1", "Potency": "inconclusive: 18.3 µM [activator, single point]"}, {"smiles": "Cc1ccc(C(=O)O/N=C(\\N)c2ccc(Br)cc2)cc1C", "Potency": "inconclusive: 23.1 µM [activator, partial curve]"}, {"smiles": "Cc1cc(C)cc(C(=O)Nc2ccc(NC(=O)Cc3ccccc3)cc2)c1", "Potency": "inconclusive: 29.1 µM [activator, single point]"}, {"smiles": "N/C(=N\\OC(=O)COc1ccc(Cl)cc1Br)c1cccnc1", "Potency": "inconclusive: 6.51 µM [activator, partial curve]"}, {"smiles": "CCOCCc1nn2c(=O)cc(CSCC(=O)Nc3ccc(OC)cc3)nc2s1", "Potency": "inconclusive: 20.6 µM [activator, partial curve, poor fit]"}, {"smiles": "Cc1cc(Nc2ncc(Cl)cc2Cl)n(-c2ccccc2C)n1", "Potency": "inactive"}, {"smiles": "C=CCC[C@@H](Cc1ccc(F)cc1)C(=O)OC[C@@H](NC(=O)[C@@H](CC=C)CC(=O)N[C@H](CO)Cc1ccccc1)C(C)(C)C", "Potency": "inconclusive: 29.1 µM [inhibitor, single point]"}, {"smiles": "Nc1nonc1C(=O)N/N=C/c1cc(Br)ccc1O", "Potency": "inactive"}, {"smiles": "COc1ccc(CCNC(=S)NCc2cccs2)cc1OC", "Potency": "inactive"}, {"smiles": "CCCOc1ccc(/C=C/C(=O)N2CCOCC2)cc1", "Potency": "inconclusive: 7.3 µM [activator, partial curve]"}, {"smiles": "Cc1cc(C(=O)N/N=C2\\CCCC(=O)C2)c(C)n1-c1ccccc1", "Potency": "inconclusive: 25.9 µM [activator, single point]"}, {"smiles": "O=C(CN1C(=O)NC2(CCCC2)C1=O)Nc1ccc(Cl)cc1F", "Potency": "inactive"}, {"smiles": "Cc1cc(NC(=O)c2ccc(NC(=O)c3cccs3)cc2)no1", "Potency": "inconclusive: 16.4 µM [inhibitor, single point]"}, {"smiles": "Cc1ccc2nccc(C(=O)N3CCCC(Nc4ccc(C)c(C)c4)C3)c2c1", "note": "(stereo unspecified)", "Potency": "inactive"}, {"smiles": "Nc1nnc(SCc2cn3cc(Cl)ccc3n2)s1", "Potency": "inconclusive: 20.6 µM [activator, partial curve]"}, {"smiles": "COc1cc(OC)cc(C(=O)Nc2cc(C)on2)c1", "Potency": "inactive"}, {"smiles": "c1ccc(Nc2nnc(-c3cccnc3)s2)cc1", "Potency": "inconclusive: 2.06 µM [activator, partial curve]"}, {"smiles": "O=C(c1cnn2c(C(F)(F)F)cc(-c3ccccc3)nc12)N1CCCc2ccccc21", "Potency": "inactive"}, {"smiles": "O/N=C\\c1cnc(N2CCN(c3ccccc3)CC2)s1", "Potency": "inconclusive: 20.6 µM [activator, partial curve]"}, {"smiles": "COC(=O)c1sc(NC(=O)c2oc3ccccc3c2C)nc1C", "Potency": "inconclusive: 2.31 µM [activator, partial curve, poor fit]"}, {"smiles": "O=C(CSCc1cccc(F)c1)N1CCN(c2ccccc2)CC1", "Potency": "inconclusive: 14.1 µM [activator, partial curve, poor fit]"}, {"smiles": "COc1ccc(C(=O)CN2C(=O)c3ccccc3C2=O)c(OC)c1", "Potency": "inconclusive: 23.1 µM [activator, partial curve]"}, {"smiles": "CC(C)(C)NC(=O)CSc1nc2ccc(NC(=O)CSc3nnnn3Cc3ccccc3)cc2s1", "Potency": "active: 2.91 µM"}, {"smiles": "CCOC(=O)C1=C(COC(=O)/C=C/c2ccc(SC)cc2)NC(=O)NC1C", "note": "(stereo unspecified)", "Potency": "active: 10.3 µM"}, {"smiles": "O=C(CCc1nnc(C2(c3ccc(Cl)cc3)CCC2)o1)NC1CC1", "Potency": "inactive"}, {"smiles": "CCN(C(=O)CN1C(=O)CN(C)C1=O)c1cccc2ccccc12", "Potency": "inactive"}, {"smiles": "c1ccn2cc(-c3ccc4c(c3)OCCO4)nc2c1", "Potency": "inconclusive: 0.517 µM [activator, full curve]"}, {"smiles": "Cc1ccc(-c2noc(CSc3nnc(-c4ccncc4)n3-c3ccc(F)cc3)n2)cc1", "Potency": "inconclusive: 20.6 µM [inhibitor, partial curve]"}, {"smiles": "O=C(CSc1nc2ccccc2c(=O)n1-c1cccc(C(F)(F)F)c1)NC1CC1", "Potency": "inactive"}, {"smiles": "Nc1c(C(=O)c2cccs2)sc2nsc(SCCN3CCCCC3)c12", "Potency": "inconclusive: 16.4 µM [activator, partial curve]"}, {"smiles": "C=CCNC(=S)N/N=C/c1ccc(C)cc1C", "Potency": "inconclusive: 16.4 µM [inhibitor, single point]"}, {"smiles": "CCc1ccc(NC(=O)c2cnn3c(C(F)F)cc(C)nc23)cc1", "Potency": "inactive"}, {"smiles": "CNC(=O)c1ccsc1NC(=O)c1ccc2c(c1)CCCC2", "Potency": "inconclusive: 18.4 µM [activator, partial curve]"}]}]}
